The record followed here is publication PMC12689330.

Chains of the proteins cited; added tags and fusions are not shown. Residues count along the entry.
UniProt P20333, residues 23-461: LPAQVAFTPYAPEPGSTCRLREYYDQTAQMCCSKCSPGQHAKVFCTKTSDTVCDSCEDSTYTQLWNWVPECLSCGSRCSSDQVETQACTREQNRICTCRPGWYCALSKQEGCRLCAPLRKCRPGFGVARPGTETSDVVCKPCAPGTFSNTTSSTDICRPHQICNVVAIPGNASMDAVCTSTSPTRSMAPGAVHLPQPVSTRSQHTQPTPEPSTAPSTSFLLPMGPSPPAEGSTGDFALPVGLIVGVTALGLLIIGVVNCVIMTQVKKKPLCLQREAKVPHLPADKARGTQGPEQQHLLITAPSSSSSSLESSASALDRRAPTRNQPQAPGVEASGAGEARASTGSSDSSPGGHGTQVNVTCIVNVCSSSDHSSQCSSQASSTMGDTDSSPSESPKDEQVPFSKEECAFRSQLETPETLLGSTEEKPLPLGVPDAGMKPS

For the assay, the target named is TNFR2 (UniProt P20333). In words: flow cytometry on cells; TNFR2-overexpressing Jurkat cells (JK-R2) treated with biotin-UMR2-705, detected with APC-conjugated streptavidin; control Jurkat-NC cells alongside; only the binder purified.

These are yes or no findings as the source states them, for the method shown. Some binding calls cover weakened binding; strength is not graded here.

Regarding DLLISIY (biotin (position not given)) [biotin-UMR2-705], the binding entry is reported as “binds”.
